No constants are given. Whether binding was seen depends on the method and setting. In cells and extracts the contact can be indirect. Here binding means that the protein was enriched with, or labelled near, the bait; the list need not be complete. Sequences can lack the tags named with a protein.
B1: ATP synthase f subunit (protein, UniProt P56134-2 1-88)
chain: MASVVPVKDKKLLEVKLGELPSWILMRDFSPSGIFGAFQRGYYRYYNKYINVKKGSISGITMVLACYVLFSYSFSYKHLKHERLRKYH
B2: ATP synthase e subunit (protein, UniProt P56385 1-69)
chain: MVPPVQVSPLIKLGRYSALFLGVAYGATRYNYLKPRAEEERRIAAEEKKKQDELKRIARELAEDDSILK
B3: Carbamoyl phosphate synthetase 1 (protein, UniProt P31327-1 39-1500)
chain: LSVKAQTAHIVLEDGTKMKGYSFGHPSSVAGEVVFNTGLGGYPEAITDPAYKGQILTMANPIIGNGGAPDTTALDELGLSKYLESNGIKVSGLLVLDYSKDYNHWLATKSLGQWLQEEKVPAIYGVDTRMLTKIIRDKGTMLGKIEFEGQPVDFVDPNKQNLIAEVSTKDVKVYGKGNPTKVVAVDCGIKNNVIRLLVKRGAEVHLVPWNHDFTKMEYDGILIAGGPGNPALAEPLIQNVRKILESDRKEPLFGISTGNLITGLAAGAKTYKMSMANRGQNQPVLNITNKQAFITAQNHGYALDNTLPAGWKPLFVNVNDQTNEGIMHESKPFFAVQFHPEVTPGPIDTEYLFDSFFSLIKKGKATTITSVLPKPALVASRVEVSKVLILGSGGLSIGQAGEFDYSGSQAVKAMKEENVKTVLMNPNIASVQTNEVGLKQADTVYFLPITPQFVTEVIKAEQPDGLILGMGGQTALNCGVELFKRGVLKEYGVKVLGTSVESIMATEDRQLFSDKLNEINEKIAPSFAVESIEDALKAADTIGYPVMIRSAYALGGLGSGICPNRETLMDLSTKAFAMTNQILVEKSVTGWKEIEYEVVRDADDNCVTVCNMENVDAMGVHTGDSVVVAPAQTLSNAEFQMLRRTSINVVRHLGIVGECNIQFALHPTSMEYCIIEVNARLSRSSALASKATGYPLAFIAAKIALGIPLPEIKNVVSGKTSACFEPSLDYMVTKIPRWDLDRFHGTSSRIGSSMKSVGEVMAIGRTFEESFQKALRMCHPSIEGFTPRLPMNKEWPSNLDLRKELSEPSSTRIYAIAKAIDDNMSLDEIEKLTYIDKWFLYKMRDILNMEKTLKGLNSESMTEETLKRAKEIGFSDKQISKCLGLTEAQTRELRLKKNIHPWVKQIDTLAAEYPSVTNYLYVTYNGQEHDVNFDDHGMMVLGCGPYHIGSSVEFDWCAVSSIRTLRQLGKKTVVVNCNPETVSTDFDECDKLYFEELSLERILDIYHQEACGGCIISVGGQIPNNLAVPLYKNGVKIMGTSPLQIDRAEDRSIFSAVLDELKVAQAPWKAVNTLNEALEFAKSVDYPCLLRPSYVLSGSAMNVVFSEDEMKKFLEEATRVSQEHPVVLTKFVEGAREVEMDAVGKDGRVISHAISEHVEDAGVHSGDATLMLPTQTISQGAIEKVKDATRKIAKAFAISGPFNVQFLVKGNDVLVIECNLRASRSFPFVSKTLGVDFIDVATKVMIGENVDEKHLPTLDHPIIPADYVAIKAPMFSWPRLRDADPILRCEMASTGEVACFGEGIHTAFLKAMLSTGFKIPQKGILIGIQQSFRPRFLGVAEQLHNEGFKLFATEATSDWLNANNVPATPVAWPSQEGQNPSLSSIRKLIRDGSIDLVINLPNNNTKFVHDNYVIRRTAVDSGIPLLTNFQVTKLFAEAVQKSRKVDSKSLFHYRQYSAGKAA
B4: Voltage-dependent anion channel 2 (protein, UniProt P45880-3 1-294)
chain: MATHGQTCARPMCIPPSYADLGKAARDIFNKGFGFGLVKLDVKTKSCSGVEFSTSGSSNTDTGKVTGTLETKYKWCEYGLTFTEKWNTDNTLGTEIAIEDQICQGLKLTFDTTFSPNTGKKSGKIKSSYKRECINLGCDVDFDFAGPAIHGSAVFGYEGWLAGYQMTFDSAKSKLTRNNFAVGYRTGDFQLHTNVNDGTEFGGSIYQKVCEDLDTSVNLAWTSGTNCTRFGIAAKYQLDPTASISAKVNNSSLIGVGYTQTLRPGVKLTLSALVDGKSINAGGHKVGLALELEA
B5: stomatin (EPB72)-like 2 (protein, UniProt Q9UJZ1-1 29-356)
chain: SSGLPRNTVVLFVPQQEAWVVERMGRFHRILEPGLNILIPVLDRIRYVQSLKEIVINVPEQSAVTLDNVTLQIDGVLYLRIMDPYKASYGVEDPEYAVTQLAQTTMRSELGKLSLDKVFRERESLNASIVDAINQAADCWGIRCLRYEIKDIHVPPRVKESMQMQVEAERRKRATVLESEGTRESAINVAEGKKQAQILASEAEKAEQINQAAGEASAVLAKAKAKAEAIRILAAALTQHNGDAAASLTVAEQYVSAFSKLAKDSNTILLPSNPGDVTSMVAQAMGVYGALTKAPVPGTPDSLSSGSSRDVQGTDASLDEELDRVKMS
B6: Manose-P-dolichol utilization defect 1 (protein, UniProt O75352-1 1-247)
chain: MAAEADGPLKRLLVPILLPEKCYDQLFVQWDLLHVPCLKILLSKGLGLGIVAGSLLVKLPQVFKILGAKSAEGLSLQSVMLELVALTGTMVYSITNNFPFSSWGEALFLMLQTITICFLVMHYRGQTVKGVAFLACYGLVLLVLLSPLTPLTVVTLLQASNVPAVVVGRLLQAATNYHNGHTGQLSAITVFLLFGGSLARIFTSIQETGDPLMAGTFVVSSLCNGLIAAQLLFYWNAKPPHKQKKAQ
B7: Ribophorin I (protein, UniProt P04843 24-607)
chain: ASSEAPPLINEDVKRTVDLSSHLAKVTAEVVLAHLGGGSTSRATSFLLALEPELEARLAHLGVQVKGEDEEENNLEVRETKIKGKSGRFFTVKLPVALDPGAKISVIVETVYTHVLHPYPTQITQSEKQFVVFEGNHYFYSPYPTKTQTMRVKLASRNVESYTKLGNPTRSEDLLDYGPFRDVPAYSQDTFKVHYENNSPFLTITSMTRVIEVSHWGNIAVEENVDLKHTGAVLKGPFSRYDYQRQPDSGISSIRSFKTILPAAAQDVYYRDEIGNVSTSHLLILDDSVEMEIRPRFPLFGGWKTHYIVGYNLPSYEYLYNLGDQYALKMRFVDHVFDEQVIDSLTVKIILPEGAKNIEIDSPYEISRAPDELHYTYLDTFGRPVIVAYKKNLVEQHIQDIVVHYTFNKVLMLQEPLLVVAAFYILFFTVIIYVRLDFSITKDPAAEARMKVACITEQVLTLVNKRIGLYRHFDETVNRYKQSRDISTLNSGKKSLETEHKALTSEIALLQSRLKTEGSDLCDRVSEMQKLDAQVKELVLKSAVEAERLVAGKLKKDTYIENEKLISGKRQELVTKIDHILDAL
B8: dolichyl-diphosphooligosaccharide-protein glycosyltransferase (protein, UniProt P39656 43-456)
chain: SGPRTLVLLDNLNVRETHSLFFRSLKDRGFELTFKTADDPSLSLIKYGEFLYDNLIIFSPSVEDFGGNINVETISAFIDGGGSVLVAASSDIGDPLRELGSECGIEFDEEKTAVIDHHNYDISDLGQHTLIVADTENLLKAPTIVGKSSLNPILFRGVGMVADPDNPLVLDILTGSSTSYSFFPDKPITQYPHAVGKNTLLIAGLQARNNARVIFSGSLDFFSDSFFNSAVQKAAPGSQRYSQTGNYELAVALSRWVFKEEGVLRVGPVSHHRVGETAPPNAYTVTDLVEYSIVIQQLSNGKWVPFDGDDIQLEFVRIDPFVRTFLKKKGGKYSVQFKLPDVYGVFQFKVDYNRLGYTHLYSSTQVSVRPLQHTQYERFIPSAYPYYASAFSMMLGLFIFSIVFLHMKEKEKSD
B9: transmembrane emp24-like protein 10 (protein, UniProt P49755-1 32-219)
chain: ISFHLPINSRKCLREEIHKDLLVTGAYEISDQSGGAGGLRSHLKITDSAGHILYSKEDATKGKFAFTTEDYDMFEVCFESKGTGRIPDQLVILDMKHGVEAKNYEEIAKVEKLKPLEVELRRLEDLSESIVNDFAYMKKREEEMRDTNESTNTRVLYFSIFSMFCLIGLATWQVFYLRRFFKAKKLIE
B10: ER-Golgi intermediate compartment 1 (protein, UniProt Q969X5-1 1-290)
chain: MPFDFRRFDIYRKVPKDLTQPTYTGAIISICCCLFILFLFLSELTGFITTEVVNELYVDDPDKDSGGKIDVSLNISLPNLHCELVGLDIQDEMGRHEVGHIDNSMKIPLNNGAGCRFEGQFSINKVPGNFHVSTHSATAQPQNPDMTHVIHKLSFGDTLQVQNIHGAFNALGGADRLTSNPLASHDYILKIVPTVYEDKSGKQRYSYQYTVANKEYVAYSHTGRIIPAIWFRYDLSPITVKYTERRQPLYRFITTICAIIGGTFTVAGILDSCIFTASEAWKKIQLGKMH
B11: Transmembrane emp24 protein transport domain containing 5 (protein, UniProt Q9Y3A6-1 28-229)
chain: FTPSLDSDFTFTLPAGQKECFYQPMPLKASLEIEYQVLDGAGLDIDFHLASPEGKTLVFEQRKSDGVHTVETEVGDYMFCFDNTFSTISEKVIFFELILDNMGEQAQEQEDWKKYITGTDILDMKLEDILESINSIKSRLSKSGHIQTLLRAFEARDRNIQESNFDRVNFWSMVNLVVMVVVSAIQVYMLKSLFEDKRKSRT
B12: PRA1 domain family, member 2 (protein, UniProt O60831 1-178)
chain: MSEVRLPPLRALDDFVLGSARLAAPDPCDPQRWCHRVINNLLYYQTNYLLCFGIGLALAGYVRPLHTLLSALVVAVALGVLVWAAETRAAVRRCRRSHPAACLAAVLAVGLLVLWVAGGACTFLFSIAGPVLLILVHASLRLRNLKNKIENKIESIGLKRTPMGLLLEALGQEQEAGS
B13: KDEL endoplasmic reticulum protein retention receptor 1 (protein, UniProt P24390-1 1-212)
chain: MNLFRFLGDLSHLLAIILLLLKIWKSRSCAGISGKSQVLFAVVFTARYLDLFTNYISLYNTCMKVVYIACSFTTVWLIYSKFKATYDGNHDTFRVEFLVVPTAILAFLVNHDFTPLEILWTFSIYLESVAILPQLFMVSKTGEAETITSHYLFALGVYRTLYLFNWIWRYHFEGFFDLIAIVAGLVQTVLYCDFFYLYITKVLKGKKLSLPA
B14: Mesenchymal stem cell protein DSCD75 (protein, UniProt Q8WUY1 18-208)
chain: LLDVWYLVRLPCAVLRARLLQPRVRDLLAEQRFPGRVLPSDLDLLLHMNNARYLREADFARVAHLTRCGVLGALRELRAHTVLAASCARHRRSLRLLEPFEVRTRLLGWDDRAFYLEARFVSLRDGFVCALLRFRQHLLGTSPERVVQHLCQRRVEPPELPADLQHWISYNEASSQLLRMESGLSDVTKDQ
B15: Sideroflexin 1 (protein, UniProt Q9H9B4 1-322)
chain: MSGELPPNINIKEPRWDQSTFIGRANHFFTVTDPRNILLTNEQLESARKIVHDYRQGIVPPGLTENELWRAKYIYDSAFHPDTGEKMILIGRMSAQVPMNMTITGCMMTFYRTTPAVLFWQWINQSFNAVVNYTNRSGDAPLTVNELGTAYVSATTGAVATALGLNALTKHVSPLIGRFVPFAAVAAANCINIPLMRQRELKVGIPVTDENGNRLGESANAAKQAITQVVVSRILMAAPGMAIPPFIMNTLEKKAFLKRFPWMSAPIQVGLVGFCLVFATPLCCALFPQKSSMSVTSLEAELQAKIQESHPELRRVYFNKGL
B16: Hypothetical protein LOC203547 (protein, UniProt Q3ZAQ7-1 1-101)
chain: MERPDKAALNALQPPEFRNESSLASTLKTLLFFTALMITVPIGLYFTTKSYIFEGALGMSNRDSYFYAAIVAVVAVHVVLALFVYVAWNEGSRQWREGKQD
B17: Upregulated during skeletal muscle growth 5 (protein, UniProt Q96IX5 1-58)
chain: MAGPESDAQYQFTGIKKYFNSYTLTGRMNCVLATYGSIALIVLYFKLRSKKTPAVKAT

By UniProt entry, the sequences of proteins in these tests, tags left out.
UniProt Q07817: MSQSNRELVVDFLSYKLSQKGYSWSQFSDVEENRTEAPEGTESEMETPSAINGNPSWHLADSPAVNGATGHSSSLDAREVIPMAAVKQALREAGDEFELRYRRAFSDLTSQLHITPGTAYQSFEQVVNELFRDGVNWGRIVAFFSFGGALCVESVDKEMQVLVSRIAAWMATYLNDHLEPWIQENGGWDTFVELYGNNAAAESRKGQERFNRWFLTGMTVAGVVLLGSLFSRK

Target: TAP-Bcl-xL (UniProt Q07817)
Assay: affinity purification with mass spectrometry; Tandem Affinity Purification from CHAPS (1%) extracts of total membranes of HeLa cells stably expressing TAP-Bcl-xL: IgG agarose, TEV cleavage, calmodulin resin, EGTA elution; most abundant Coomassie bands cut and identified by LC-MS/MS; TAP-stop cells as control

binding, binds:
B1
B2
B3
B4
B5
B6
B7
B8
B9
B10
B11
B12
B13
B14
B15
B16
B17
